Results are given in words; binding and its absence hold for the method and conditions named. Some entries that bind do so weakly or less than the wild type. Tags and fused reporters may be left off the sequences shown.

Chains of the proteins cited; added tags and fusions are not shown. Lines headed by an entry give the natural chain unless they say otherwise; changes in a name come on top. Residues count along the entry.
UniProt P08121, residues 155-1219: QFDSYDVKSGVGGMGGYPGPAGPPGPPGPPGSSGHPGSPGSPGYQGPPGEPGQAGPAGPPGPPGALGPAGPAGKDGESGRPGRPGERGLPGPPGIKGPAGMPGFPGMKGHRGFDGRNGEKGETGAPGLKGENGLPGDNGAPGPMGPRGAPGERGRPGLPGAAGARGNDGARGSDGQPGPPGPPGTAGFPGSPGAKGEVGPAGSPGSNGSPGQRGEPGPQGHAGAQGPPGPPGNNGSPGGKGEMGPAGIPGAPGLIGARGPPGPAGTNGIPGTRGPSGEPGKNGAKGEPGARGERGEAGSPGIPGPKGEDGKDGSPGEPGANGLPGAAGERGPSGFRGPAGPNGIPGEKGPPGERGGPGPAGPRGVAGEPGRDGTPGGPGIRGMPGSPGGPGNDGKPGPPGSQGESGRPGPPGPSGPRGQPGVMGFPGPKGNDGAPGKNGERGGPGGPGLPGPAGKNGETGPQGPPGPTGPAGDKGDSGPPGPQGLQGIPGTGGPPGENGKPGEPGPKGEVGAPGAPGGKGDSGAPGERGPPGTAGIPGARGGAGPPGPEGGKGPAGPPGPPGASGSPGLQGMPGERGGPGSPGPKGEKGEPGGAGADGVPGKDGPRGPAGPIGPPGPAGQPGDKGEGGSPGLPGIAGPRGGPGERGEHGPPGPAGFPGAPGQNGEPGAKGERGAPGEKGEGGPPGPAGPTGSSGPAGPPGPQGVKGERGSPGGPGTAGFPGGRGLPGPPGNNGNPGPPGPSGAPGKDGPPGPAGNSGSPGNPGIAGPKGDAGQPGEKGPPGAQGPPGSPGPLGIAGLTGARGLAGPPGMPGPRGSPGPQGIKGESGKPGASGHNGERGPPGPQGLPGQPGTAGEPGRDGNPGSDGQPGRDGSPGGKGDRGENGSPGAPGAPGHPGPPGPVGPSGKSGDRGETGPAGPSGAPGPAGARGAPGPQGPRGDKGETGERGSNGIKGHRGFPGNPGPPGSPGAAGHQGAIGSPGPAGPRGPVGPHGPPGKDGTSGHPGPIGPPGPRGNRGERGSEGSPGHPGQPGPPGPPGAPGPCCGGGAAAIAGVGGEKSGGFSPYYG
UniProt P08123: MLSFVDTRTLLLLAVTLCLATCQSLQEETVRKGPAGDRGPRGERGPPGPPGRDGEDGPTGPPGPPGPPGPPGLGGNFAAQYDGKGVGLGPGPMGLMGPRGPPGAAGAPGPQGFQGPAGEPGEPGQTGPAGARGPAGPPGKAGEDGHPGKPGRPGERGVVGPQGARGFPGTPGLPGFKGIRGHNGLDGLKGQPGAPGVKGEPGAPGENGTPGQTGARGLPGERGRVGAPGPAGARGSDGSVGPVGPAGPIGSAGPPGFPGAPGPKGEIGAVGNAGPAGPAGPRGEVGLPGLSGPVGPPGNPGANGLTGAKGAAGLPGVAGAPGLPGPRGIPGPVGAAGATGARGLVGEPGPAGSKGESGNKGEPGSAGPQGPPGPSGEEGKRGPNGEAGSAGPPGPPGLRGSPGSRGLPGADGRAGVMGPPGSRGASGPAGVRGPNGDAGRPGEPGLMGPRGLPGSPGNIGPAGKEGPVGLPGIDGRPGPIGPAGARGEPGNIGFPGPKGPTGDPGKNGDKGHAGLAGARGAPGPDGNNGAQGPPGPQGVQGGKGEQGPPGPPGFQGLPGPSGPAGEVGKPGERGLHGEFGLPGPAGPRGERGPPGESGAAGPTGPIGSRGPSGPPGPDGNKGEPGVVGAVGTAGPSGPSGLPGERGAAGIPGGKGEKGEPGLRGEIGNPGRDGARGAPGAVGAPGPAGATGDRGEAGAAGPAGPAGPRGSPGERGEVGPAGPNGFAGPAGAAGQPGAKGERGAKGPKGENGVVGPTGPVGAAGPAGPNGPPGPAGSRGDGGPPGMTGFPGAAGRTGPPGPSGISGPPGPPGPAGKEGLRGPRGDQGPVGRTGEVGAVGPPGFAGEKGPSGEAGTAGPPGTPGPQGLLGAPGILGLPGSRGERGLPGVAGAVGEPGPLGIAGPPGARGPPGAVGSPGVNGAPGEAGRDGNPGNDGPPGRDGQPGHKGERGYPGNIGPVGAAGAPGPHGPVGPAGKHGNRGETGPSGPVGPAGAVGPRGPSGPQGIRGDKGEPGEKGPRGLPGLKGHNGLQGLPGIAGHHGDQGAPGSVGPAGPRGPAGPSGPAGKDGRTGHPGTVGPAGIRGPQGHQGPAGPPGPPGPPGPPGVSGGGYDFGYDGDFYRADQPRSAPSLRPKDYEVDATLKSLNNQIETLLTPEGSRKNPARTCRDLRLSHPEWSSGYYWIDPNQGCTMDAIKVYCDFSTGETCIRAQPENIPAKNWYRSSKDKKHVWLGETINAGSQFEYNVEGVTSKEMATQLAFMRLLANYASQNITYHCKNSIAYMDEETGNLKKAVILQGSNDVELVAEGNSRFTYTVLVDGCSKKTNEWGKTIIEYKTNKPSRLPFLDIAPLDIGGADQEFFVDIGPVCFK
UniProt P02454: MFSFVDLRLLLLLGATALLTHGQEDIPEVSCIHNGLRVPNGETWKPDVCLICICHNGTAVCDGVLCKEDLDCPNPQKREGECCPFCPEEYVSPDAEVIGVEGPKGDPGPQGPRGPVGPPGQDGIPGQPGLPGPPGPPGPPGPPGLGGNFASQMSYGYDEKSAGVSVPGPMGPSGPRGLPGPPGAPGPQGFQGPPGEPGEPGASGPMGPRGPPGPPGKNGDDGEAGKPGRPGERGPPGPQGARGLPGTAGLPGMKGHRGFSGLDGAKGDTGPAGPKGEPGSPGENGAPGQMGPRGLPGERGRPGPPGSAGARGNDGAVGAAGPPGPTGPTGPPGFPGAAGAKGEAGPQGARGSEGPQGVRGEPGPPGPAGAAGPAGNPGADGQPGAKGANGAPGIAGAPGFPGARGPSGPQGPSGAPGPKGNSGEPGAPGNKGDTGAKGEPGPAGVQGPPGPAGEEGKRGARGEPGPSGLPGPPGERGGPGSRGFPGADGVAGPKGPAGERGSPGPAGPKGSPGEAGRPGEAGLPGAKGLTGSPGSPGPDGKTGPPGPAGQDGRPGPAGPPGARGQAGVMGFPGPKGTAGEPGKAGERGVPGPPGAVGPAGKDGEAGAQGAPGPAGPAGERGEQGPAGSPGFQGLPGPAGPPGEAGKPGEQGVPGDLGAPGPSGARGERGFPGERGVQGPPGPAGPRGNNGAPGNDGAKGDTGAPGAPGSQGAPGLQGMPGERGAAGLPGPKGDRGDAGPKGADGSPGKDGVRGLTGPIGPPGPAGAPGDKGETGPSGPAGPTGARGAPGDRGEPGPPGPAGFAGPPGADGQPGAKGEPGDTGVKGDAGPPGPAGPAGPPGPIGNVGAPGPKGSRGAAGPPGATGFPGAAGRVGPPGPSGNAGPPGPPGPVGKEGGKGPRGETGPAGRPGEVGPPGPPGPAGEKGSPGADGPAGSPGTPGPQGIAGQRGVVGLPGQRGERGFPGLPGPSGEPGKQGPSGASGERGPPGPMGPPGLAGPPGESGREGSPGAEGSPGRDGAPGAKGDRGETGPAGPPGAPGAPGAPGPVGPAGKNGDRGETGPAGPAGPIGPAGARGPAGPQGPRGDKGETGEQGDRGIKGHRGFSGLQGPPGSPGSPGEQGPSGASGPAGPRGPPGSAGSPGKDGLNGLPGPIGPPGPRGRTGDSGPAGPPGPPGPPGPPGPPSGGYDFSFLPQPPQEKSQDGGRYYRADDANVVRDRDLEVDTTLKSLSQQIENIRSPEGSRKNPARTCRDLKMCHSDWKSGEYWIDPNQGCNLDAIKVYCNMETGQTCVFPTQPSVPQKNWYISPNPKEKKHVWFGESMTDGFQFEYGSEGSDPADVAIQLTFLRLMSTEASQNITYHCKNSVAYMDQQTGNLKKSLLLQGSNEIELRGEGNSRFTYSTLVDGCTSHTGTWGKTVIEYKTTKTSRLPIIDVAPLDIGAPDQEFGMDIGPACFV
UniProt P11087: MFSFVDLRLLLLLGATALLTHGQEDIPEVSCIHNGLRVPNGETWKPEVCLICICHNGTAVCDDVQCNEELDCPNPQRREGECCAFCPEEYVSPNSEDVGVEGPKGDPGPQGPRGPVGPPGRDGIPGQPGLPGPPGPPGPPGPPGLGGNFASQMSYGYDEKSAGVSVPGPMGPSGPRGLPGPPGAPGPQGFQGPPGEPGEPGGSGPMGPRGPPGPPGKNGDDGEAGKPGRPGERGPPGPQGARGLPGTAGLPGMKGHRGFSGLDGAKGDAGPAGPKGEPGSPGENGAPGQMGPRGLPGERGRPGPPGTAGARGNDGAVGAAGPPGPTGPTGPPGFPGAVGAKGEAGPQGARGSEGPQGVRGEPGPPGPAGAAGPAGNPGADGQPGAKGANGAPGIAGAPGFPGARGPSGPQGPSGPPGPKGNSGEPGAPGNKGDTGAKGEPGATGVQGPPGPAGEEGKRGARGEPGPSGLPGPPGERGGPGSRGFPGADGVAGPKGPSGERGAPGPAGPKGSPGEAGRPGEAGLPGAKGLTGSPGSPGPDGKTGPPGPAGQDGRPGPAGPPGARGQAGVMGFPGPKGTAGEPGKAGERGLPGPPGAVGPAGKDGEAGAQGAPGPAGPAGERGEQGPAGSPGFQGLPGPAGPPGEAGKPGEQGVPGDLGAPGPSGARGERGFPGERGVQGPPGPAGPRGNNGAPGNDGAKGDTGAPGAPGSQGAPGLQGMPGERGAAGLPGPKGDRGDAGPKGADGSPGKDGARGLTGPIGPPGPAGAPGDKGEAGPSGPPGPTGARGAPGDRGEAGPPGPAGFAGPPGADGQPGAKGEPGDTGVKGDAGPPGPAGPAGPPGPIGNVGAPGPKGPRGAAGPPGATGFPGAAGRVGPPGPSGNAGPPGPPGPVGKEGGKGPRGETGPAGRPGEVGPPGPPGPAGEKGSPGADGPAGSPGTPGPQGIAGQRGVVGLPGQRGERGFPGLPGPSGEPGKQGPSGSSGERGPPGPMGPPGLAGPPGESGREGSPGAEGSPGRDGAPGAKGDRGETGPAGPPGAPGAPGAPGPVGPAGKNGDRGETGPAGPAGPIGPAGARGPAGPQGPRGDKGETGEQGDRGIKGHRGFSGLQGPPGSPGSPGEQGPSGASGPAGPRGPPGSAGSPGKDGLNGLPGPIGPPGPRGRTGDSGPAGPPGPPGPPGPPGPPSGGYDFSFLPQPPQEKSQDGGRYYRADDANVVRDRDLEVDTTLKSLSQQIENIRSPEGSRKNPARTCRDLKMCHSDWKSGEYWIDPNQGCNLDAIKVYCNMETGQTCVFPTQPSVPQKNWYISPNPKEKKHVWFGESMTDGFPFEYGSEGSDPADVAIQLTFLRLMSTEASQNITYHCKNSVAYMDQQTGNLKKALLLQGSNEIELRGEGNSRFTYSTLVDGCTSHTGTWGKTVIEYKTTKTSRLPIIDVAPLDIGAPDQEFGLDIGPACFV
UniProt P02461, residues 154-1221: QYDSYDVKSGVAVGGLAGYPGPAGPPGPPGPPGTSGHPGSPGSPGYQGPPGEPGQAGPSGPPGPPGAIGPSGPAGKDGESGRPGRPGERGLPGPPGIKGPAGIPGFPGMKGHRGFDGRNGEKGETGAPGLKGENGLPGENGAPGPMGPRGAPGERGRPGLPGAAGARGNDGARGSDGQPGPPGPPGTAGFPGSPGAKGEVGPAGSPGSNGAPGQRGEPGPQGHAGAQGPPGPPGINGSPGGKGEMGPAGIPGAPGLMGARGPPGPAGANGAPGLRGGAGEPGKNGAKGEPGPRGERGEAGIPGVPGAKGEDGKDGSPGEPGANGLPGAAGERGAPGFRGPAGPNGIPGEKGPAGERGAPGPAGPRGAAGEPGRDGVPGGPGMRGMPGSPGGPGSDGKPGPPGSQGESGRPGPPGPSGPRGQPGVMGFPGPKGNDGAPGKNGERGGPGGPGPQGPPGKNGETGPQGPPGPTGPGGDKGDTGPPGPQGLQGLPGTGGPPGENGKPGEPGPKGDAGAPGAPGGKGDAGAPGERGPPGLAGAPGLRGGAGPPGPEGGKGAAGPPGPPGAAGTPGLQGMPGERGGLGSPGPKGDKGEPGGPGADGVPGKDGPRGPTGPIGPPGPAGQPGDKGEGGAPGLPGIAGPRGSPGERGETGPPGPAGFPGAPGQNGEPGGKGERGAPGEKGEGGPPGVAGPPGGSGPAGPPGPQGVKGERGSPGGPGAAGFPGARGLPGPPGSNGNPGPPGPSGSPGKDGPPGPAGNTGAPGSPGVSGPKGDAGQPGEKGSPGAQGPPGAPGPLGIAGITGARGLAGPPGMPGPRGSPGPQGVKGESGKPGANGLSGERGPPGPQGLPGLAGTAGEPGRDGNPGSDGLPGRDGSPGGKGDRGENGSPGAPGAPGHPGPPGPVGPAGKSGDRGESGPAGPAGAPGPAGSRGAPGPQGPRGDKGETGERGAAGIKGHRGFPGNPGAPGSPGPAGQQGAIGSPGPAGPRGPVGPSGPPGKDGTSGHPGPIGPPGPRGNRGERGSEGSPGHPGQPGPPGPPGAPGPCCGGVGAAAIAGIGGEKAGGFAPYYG

T1: NC410, LAIR-2 human IgG1 Fc fusion protein (human) (UniProt Q6ISS4)
T1 sequence: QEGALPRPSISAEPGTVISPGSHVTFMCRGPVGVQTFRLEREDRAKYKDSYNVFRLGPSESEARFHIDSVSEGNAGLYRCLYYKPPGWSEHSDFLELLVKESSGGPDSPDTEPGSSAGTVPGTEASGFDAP

B1: human LAIR-1 Fc fusion protein (Fc fusion, UniProt Q6GTX8 22-165)
chain: QEEDLPRPSISAEPGTVIPLGSHVTFVCRGPVGVQTFRLERDSRSTYNDTEDVSQASPSESEARFRIDSVREGNAGLYRCIYYKPPKWSEQSDYLELLVKESSGGPDSPDTEPGSSAGPTQRPSDNSHNEHAPASQGLKAEHLY
modifications: biotin (EZ-Link NHS-PEG4-Biotin)

One experiment deals with T1, NC410, LAIR-2 human IgG1 Fc fusion protein (human). The experiment can be described thus: BLI.
For “mouse collagen III (from UniProt P08121 155-1219)”, the binding entry is “binds”.

Regarding “human collagen I (from UniProt P02452 162-1218; P08123 80-1119)”, the binding entry is on record as “binds”. In the case of “rat collagen I (from UniProt P02454 152-1207; P02466 86-1125)”, the binding entry is “binds”. On the same count and under the same terms, with “mouse collagen I (from UniProt P11087 152-1207; Q01149 86-1125)” the entry was “binds”; with “rat collagen III (from UniProt P13941 155-1218)”, “binds”; with “human collagen III (from UniProt P02461 154-1221)”, “binds”.

A further experiment addresses human collagen I (human) (UniProt P02452+P08123). The experiment can be described thus: time resolved fluorometry.
Regarding B1, the binding result was “binds”.
